Among the data in publication PMC11796410 are binding values, retold here.

By UniProt entry, the sequences of proteins in these tests, tags left out.
UniProt Q5AGW7: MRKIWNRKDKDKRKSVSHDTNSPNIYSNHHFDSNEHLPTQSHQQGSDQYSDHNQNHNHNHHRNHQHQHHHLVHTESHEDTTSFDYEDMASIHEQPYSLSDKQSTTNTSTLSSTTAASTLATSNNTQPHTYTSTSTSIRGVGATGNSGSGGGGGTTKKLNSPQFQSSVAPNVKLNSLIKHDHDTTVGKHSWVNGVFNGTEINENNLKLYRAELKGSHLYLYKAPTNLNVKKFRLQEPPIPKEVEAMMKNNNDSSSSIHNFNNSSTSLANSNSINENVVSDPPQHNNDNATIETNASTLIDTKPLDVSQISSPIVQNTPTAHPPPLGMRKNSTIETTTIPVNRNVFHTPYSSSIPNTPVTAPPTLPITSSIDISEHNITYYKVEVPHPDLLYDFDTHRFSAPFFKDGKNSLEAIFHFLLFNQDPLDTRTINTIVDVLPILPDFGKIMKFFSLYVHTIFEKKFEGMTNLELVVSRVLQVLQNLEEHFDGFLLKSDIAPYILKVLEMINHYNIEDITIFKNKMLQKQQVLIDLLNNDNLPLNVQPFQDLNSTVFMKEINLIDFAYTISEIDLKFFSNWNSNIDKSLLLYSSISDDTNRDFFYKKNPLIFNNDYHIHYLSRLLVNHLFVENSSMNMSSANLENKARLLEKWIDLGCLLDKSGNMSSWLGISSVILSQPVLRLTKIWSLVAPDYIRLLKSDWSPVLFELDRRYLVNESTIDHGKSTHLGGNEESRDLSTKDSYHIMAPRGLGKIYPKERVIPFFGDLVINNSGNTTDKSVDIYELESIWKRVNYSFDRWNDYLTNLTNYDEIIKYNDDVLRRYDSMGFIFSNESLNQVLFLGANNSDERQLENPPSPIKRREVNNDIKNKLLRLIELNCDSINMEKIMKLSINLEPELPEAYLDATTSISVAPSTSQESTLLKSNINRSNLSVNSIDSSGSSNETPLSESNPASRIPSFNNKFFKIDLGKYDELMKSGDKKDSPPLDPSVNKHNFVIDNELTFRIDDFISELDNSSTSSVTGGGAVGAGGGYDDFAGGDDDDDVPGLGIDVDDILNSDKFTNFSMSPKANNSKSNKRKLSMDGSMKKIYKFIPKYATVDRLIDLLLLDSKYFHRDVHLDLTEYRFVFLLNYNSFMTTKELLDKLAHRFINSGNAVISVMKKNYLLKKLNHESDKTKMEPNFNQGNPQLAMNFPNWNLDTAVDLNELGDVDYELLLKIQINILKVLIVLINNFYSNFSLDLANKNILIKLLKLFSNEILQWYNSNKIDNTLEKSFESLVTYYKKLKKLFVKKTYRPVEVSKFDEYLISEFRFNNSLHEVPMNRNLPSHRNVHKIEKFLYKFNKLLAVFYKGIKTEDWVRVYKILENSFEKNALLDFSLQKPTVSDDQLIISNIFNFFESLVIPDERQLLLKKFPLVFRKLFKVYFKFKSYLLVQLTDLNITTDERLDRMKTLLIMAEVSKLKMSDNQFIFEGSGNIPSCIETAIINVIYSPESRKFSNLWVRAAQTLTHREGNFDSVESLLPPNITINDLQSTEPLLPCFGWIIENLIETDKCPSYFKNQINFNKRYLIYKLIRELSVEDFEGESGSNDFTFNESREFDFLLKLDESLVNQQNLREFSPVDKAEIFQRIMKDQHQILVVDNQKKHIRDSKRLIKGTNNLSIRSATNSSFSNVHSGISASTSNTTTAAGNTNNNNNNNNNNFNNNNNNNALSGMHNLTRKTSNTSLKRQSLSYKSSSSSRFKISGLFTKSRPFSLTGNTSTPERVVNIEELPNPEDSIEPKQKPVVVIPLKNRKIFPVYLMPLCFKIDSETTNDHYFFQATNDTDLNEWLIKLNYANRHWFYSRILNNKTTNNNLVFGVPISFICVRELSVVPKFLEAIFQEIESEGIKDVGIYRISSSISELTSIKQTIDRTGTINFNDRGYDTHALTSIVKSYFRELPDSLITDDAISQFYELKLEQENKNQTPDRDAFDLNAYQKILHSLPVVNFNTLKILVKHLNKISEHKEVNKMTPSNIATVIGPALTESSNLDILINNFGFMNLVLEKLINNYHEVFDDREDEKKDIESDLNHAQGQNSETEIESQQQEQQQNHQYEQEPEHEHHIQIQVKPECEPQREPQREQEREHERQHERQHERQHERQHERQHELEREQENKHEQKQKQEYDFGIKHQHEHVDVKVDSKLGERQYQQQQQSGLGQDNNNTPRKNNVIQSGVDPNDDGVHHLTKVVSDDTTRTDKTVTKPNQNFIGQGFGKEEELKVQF

The target in one assay is Bem2-HA (C. albicans) (UniProt Q5AGW7). Briefly: co-IP.
Another assay concerns the target Myc-Sdd3 (C. albicans) (UniProt Q59R27). In words: co-IP.

These are yes or no findings as the source states them, for the method shown. In cells and extracts the contact can be indirect. Binding can be weak; no strength is given.

Consider Myc-Sdd3 (from UniProt Q59R27), for which the binding result in the assay with Bem2-HA (C. albicans) is reported as “binds”.

With Bem2-HA (from UniProt Q5AGW7 1-2252), the binding result in the assay with Myc-Sdd3 (C. albicans) is listed as “binds”.
